Data from article PMC4969687.

Target: T1, Myc-Dishevelled (UniProt P51142)
T1 sequence: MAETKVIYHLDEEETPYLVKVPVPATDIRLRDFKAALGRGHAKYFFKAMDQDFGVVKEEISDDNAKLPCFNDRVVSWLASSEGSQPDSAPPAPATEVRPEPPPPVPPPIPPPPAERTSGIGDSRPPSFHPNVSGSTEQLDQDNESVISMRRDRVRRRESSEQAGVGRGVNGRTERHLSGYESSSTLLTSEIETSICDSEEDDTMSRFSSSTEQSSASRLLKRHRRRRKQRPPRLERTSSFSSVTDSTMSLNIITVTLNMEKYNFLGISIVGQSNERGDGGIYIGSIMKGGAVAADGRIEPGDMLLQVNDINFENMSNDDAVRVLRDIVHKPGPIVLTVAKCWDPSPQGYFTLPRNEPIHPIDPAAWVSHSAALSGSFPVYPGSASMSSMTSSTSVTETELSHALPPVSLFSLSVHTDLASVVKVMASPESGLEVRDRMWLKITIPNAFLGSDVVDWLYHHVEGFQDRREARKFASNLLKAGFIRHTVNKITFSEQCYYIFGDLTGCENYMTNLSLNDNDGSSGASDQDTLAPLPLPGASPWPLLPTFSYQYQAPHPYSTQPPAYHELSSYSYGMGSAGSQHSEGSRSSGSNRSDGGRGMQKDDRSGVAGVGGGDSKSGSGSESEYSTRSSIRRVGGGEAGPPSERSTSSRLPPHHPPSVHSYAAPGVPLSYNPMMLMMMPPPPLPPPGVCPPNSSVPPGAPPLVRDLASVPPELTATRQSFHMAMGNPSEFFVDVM
Assay: co-IP; mRNAs for HA-Gtpbp2 and Myc-tagged proteins injected into two-cell Xenopus embryos; lysed at gastrula stage 11; immunoprecipitation with anti-myc antibody; blot for co-precipitated HA-Gtpbp2

binding: binds
Substance: HA-Gtpbp2 (GTP-binding protein 2) (Xenopus)

Results are given in words; binding and its absence hold for the method and conditions named. In cells and extracts the contact can be indirect. Binding can be weak; no strength is given. Tags and fused reporters may be left off the sequences shown.
